Consider 2 substances from paper PMC5430609.

By UniProt entry, the sequences of proteins in these tests, tags left out.
UniProt P49407: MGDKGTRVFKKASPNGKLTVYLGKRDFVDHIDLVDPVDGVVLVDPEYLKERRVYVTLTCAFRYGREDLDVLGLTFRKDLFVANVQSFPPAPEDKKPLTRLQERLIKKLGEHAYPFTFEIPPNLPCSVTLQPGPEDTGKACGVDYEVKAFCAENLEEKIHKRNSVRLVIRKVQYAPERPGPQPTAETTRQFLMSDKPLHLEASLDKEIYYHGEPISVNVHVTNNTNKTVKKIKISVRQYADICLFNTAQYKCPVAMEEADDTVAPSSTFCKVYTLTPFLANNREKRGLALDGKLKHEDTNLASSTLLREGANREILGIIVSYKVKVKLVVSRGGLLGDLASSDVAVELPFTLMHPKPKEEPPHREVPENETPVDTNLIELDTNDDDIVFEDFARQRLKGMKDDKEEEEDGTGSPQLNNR
UniProt P32121: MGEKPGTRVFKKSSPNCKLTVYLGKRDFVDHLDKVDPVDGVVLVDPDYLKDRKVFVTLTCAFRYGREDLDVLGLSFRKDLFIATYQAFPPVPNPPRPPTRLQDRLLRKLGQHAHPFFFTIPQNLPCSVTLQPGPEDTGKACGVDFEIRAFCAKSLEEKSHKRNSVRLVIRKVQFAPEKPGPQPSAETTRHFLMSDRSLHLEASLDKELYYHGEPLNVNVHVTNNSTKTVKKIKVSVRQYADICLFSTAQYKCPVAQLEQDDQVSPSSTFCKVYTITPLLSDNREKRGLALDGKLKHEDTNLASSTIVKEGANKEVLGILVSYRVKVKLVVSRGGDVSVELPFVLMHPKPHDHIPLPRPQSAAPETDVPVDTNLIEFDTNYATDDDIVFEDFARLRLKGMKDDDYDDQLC

For the assay, the target named is T1, melanopsin fused to the C-terminal fragment of click beetle luciferase (UniProt Q9UHM6).
T1 sequence: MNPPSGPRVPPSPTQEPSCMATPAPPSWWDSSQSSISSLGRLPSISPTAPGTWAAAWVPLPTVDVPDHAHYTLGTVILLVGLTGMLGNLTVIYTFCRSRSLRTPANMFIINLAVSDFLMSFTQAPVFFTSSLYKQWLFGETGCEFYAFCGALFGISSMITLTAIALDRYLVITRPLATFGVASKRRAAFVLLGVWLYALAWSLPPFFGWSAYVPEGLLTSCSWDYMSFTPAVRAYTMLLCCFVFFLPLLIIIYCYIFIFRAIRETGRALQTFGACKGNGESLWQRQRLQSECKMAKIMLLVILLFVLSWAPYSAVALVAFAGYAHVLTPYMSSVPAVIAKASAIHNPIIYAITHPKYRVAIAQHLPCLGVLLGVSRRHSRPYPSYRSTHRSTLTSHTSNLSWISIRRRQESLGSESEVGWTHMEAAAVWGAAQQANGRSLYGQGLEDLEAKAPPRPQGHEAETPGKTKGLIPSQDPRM
The assay is described as follows: split reporter; split click beetle luciferase: opsin-ElucC and ElucN-β-arrestin in HEK293 cells (stable expression for JellyOp and F112A), 10 uM 9-cis retinal, dark against white room light 0.1 mW cm^-2, luminescence on a plate reader.

These are yes or no findings as the source states them, for the method shown. Binding seen in cells or lysates may run through a third protein. Some binding calls cover weakened binding; strength is not graded here. Sequences can lack the tags named with a protein.

Regarding “ElucN-β-arrestin 1 (N-terminal luciferase fragment fused to the N-terminus of β-arrestin 1) (from UniProt P49407 1-418)”, the binding entry was “binds”.

On to “ElucN-β-arrestin 2 (N-terminal luciferase fragment fused to the N-terminus of β-arrestin 2) (from UniProt P32121 1-409)”, for which the binding result is recorded as “binds”.
